The supplement of paper PMC6411743
± gives the standard deviation of the averaged measurements. The list shows a part of the results, in another mix than the full data.

Columns and labels:
Assay in all cases: NP40-soluble protein abundance relative to vehicle (solubility fold change) (ratio); higher = more soluble protein in presence of AMP-PNP
[1] = molecular target: T1, UniProt Q8NCE2-2
T1 sequence (whole entry): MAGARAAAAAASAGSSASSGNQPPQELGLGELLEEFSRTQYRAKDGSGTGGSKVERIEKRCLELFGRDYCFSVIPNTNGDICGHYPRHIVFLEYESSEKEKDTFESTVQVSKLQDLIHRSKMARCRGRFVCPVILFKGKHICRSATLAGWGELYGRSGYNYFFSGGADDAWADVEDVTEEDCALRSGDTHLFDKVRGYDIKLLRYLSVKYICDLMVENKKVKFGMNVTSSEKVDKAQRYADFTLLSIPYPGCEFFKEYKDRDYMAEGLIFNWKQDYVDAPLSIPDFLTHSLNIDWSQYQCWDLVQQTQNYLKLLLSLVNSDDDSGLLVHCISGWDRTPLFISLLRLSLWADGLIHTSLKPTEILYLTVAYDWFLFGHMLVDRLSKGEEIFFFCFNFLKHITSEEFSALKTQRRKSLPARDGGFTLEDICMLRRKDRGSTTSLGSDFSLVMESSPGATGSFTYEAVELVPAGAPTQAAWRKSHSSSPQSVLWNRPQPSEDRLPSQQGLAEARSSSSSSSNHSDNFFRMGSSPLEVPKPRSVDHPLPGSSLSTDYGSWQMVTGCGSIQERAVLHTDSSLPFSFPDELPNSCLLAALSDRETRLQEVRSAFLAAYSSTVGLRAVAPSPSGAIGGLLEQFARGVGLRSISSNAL
Procedure, shortened: (§1)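 Crude Jurkat lysate, prepared by Dounce homogenisation, was exposed to eight concentrations from 0.1 to 10 mM for 10 min at room temperature and then 3 min at 37 °C. Solubilisation used 0.8% NP40 with benzonase for 60 min at 4 °C, followed by ultracentrifugation and TMT labelling of the supernatant for LC-MS/MS. After vsn normalisation of intensities, each value is the fold change against the detergent-processed vehicle within each replicate, across three independent experiments.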

[2] = molecular target: T2, UniProt Q8NE86 and related entries
T2 sequence (whole entry): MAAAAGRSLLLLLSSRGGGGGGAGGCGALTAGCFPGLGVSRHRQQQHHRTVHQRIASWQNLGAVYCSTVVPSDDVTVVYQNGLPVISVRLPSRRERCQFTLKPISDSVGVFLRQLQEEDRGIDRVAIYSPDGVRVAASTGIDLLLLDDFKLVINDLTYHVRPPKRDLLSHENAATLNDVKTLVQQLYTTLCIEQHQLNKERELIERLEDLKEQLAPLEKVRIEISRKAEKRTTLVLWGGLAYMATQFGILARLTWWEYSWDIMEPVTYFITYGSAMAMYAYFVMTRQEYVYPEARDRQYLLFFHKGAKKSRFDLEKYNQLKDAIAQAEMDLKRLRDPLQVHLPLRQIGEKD
Procedure, shortened: as §1

[3] = molecular target: T3, UniProt Q8TB36 and related entries
T3 sequence (whole entry): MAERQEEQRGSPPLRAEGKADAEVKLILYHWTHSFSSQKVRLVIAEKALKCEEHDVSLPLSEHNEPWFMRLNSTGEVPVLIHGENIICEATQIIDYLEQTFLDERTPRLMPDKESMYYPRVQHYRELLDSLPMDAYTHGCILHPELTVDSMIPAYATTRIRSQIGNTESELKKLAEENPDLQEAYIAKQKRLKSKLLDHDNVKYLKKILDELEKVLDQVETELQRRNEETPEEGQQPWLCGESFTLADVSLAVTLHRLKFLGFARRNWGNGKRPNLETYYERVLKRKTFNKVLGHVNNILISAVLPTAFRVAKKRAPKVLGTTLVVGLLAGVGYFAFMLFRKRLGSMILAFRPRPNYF
Procedure, shortened: as §1

[4] = molecular target: T4, UniProt Q8TB72-3
T4 sequence (whole entry): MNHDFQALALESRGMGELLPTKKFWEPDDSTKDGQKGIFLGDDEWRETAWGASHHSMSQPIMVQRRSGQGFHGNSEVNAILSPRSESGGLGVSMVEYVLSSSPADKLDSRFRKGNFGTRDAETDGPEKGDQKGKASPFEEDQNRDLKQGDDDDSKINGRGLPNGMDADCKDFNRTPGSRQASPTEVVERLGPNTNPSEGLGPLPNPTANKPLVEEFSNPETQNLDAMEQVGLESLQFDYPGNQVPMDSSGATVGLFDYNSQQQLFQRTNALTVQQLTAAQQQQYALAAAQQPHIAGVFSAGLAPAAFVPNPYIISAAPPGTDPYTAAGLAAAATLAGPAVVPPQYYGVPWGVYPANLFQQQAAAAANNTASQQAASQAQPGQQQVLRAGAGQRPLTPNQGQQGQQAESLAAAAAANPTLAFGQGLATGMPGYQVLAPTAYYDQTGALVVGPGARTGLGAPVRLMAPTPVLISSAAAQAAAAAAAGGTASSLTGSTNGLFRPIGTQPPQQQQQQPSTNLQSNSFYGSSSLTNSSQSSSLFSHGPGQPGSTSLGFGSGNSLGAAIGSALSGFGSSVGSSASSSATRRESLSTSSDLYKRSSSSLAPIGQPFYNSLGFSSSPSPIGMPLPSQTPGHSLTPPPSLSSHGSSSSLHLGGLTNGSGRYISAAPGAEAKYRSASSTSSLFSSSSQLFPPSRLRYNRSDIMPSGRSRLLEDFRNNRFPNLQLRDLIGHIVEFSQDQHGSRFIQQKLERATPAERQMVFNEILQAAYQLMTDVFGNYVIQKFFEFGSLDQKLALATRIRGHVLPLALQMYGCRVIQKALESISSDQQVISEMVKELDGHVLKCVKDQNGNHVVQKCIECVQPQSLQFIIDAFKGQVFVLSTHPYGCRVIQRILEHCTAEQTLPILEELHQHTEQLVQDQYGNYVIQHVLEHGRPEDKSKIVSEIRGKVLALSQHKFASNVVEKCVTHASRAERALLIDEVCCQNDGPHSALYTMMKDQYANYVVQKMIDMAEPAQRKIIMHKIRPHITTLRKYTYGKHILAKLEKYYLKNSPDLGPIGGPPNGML
Procedure, shortened: as §1

[5] = molecular target: T5, UniProt Q8TBA6 and related entries
T5 sequence (whole entry): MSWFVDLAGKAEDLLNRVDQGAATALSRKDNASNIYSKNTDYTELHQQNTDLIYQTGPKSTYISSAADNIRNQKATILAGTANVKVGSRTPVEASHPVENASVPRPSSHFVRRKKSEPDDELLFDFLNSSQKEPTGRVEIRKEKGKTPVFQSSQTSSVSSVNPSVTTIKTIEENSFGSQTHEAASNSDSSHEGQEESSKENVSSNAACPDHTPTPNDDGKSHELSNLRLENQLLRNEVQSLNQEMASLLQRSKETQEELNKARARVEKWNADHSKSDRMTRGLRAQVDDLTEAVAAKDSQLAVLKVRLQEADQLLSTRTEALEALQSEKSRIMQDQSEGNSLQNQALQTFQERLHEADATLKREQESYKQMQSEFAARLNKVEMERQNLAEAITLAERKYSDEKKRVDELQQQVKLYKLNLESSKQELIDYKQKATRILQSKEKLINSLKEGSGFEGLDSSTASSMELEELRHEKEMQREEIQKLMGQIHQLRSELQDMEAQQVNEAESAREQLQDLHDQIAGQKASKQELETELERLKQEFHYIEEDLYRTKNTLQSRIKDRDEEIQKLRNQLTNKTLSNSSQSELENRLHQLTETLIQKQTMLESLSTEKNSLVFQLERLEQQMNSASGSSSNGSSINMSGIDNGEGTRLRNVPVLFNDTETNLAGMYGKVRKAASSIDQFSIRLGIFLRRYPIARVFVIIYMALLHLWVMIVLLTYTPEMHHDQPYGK
Procedure, shortened: as §1

[6] = molecular target: T6, UniProt Q8TD55 and related entries
T6 sequence (whole entry): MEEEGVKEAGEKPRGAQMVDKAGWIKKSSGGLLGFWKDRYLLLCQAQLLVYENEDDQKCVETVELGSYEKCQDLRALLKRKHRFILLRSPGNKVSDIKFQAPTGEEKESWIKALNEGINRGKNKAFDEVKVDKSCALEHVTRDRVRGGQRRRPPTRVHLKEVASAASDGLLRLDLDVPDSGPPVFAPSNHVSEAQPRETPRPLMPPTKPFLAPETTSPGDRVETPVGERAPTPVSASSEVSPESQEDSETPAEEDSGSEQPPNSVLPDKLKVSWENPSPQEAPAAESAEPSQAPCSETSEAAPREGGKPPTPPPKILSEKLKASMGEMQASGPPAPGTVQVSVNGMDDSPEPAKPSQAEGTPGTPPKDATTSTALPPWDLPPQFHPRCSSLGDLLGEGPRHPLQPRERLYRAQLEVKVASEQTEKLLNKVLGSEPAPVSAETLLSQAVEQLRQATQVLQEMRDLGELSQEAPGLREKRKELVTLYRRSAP
Procedure, shortened: as §1

[7] = molecular target: T7, UniProt Q8WX93 and related entries; details: concentration: 1mM
T7 sequence (whole entry): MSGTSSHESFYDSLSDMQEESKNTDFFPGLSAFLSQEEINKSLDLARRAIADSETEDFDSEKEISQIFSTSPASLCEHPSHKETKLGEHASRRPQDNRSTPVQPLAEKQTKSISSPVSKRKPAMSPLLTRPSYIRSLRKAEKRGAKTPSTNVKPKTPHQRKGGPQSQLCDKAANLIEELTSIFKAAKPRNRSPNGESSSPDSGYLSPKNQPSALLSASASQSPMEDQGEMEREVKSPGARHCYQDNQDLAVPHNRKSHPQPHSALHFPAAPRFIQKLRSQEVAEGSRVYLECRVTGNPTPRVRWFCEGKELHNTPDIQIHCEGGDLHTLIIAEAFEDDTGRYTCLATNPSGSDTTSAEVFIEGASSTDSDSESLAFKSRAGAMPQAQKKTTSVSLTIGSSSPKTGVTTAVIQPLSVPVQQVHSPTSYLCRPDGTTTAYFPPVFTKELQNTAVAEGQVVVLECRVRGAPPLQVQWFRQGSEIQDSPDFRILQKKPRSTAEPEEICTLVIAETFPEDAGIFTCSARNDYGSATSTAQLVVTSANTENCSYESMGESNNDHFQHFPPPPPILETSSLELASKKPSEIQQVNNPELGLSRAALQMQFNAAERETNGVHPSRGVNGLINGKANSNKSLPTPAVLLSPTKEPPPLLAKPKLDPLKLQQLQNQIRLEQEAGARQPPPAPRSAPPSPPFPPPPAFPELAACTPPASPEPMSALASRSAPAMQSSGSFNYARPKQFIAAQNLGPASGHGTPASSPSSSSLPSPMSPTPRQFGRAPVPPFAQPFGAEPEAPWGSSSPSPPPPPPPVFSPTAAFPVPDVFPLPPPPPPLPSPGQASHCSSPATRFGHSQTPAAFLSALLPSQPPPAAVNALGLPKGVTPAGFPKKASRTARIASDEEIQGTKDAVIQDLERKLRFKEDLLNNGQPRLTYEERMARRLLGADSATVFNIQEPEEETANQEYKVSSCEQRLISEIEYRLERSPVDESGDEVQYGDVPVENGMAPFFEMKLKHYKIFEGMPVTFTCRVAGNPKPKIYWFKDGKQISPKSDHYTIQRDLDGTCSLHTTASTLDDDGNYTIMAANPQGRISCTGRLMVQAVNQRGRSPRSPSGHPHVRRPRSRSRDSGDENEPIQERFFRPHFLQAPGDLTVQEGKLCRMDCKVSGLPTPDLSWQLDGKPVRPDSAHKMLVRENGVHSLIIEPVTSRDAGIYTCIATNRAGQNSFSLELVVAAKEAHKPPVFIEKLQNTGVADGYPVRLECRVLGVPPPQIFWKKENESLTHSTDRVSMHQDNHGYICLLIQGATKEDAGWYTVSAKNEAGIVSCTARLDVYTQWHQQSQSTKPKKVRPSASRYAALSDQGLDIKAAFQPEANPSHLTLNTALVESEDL
Procedure, shortened: as §1

Nc1ncnc2c1ncn2[C@@H]1O[C@H](COP(=O)(O)OP(=O)(O)NP(=O)(O)O)[C@@H](O)[C@H]1O [adenylyl imidodiphosphate]
NP40-soluble protein abundance ([1]; concentration: 6mM): 1.01 ± 0.044 | NP40-soluble protein abundance ([1]; concentration: 8mM): 1.02 ± 0.061 | NP40-soluble protein abundance ([1]; concentration: 10mM): 1.03 ± 0.059 | NP40-soluble protein abundance ([2]; concentration: 1mM): 0.984 ± 0.034 | NP40-soluble protein abundance ([2]; concentration: 2mM): 0.959 ± 0.051 | NP40-soluble protein abundance ([2]; concentration: 4mM): 1.02 ± 0.044 | NP40-soluble protein abundance ([2]; concentration: 6mM): 0.972 ± 0.011 | NP40-soluble protein abundance ([2]; concentration: 8mM): 1 ± 0.015 | NP40-soluble protein abundance ([2]; concentration: 10mM): 0.922 ± 0.027 | NP40-soluble protein abundance ([3]; concentration: 1mM): 0.934 ± 0.06 | NP40-soluble protein abundance ([3]; concentration: 2mM): 0.96 ± 0.061 | NP40-soluble protein abundance ([3]; concentration: 4mM): 0.945 ± 0.042 | NP40-soluble protein abundance ([3]; concentration: 6mM): 0.995 ± 0.055 | NP40-soluble protein abundance ([3]; concentration: 8mM): 1.01 ± 0.02 | NP40-soluble protein abundance ([3]; concentration: 10mM): 0.963 ± 0.048 | NP40-soluble protein abundance ([4]; concentration: 1mM): 1.02 ± 0.045 | NP40-soluble protein abundance ([4]; concentration: 2mM): 1.04 ± 0.022 | NP40-soluble protein abundance ([4]; concentration: 4mM): 1.01 ± 0.058 | NP40-soluble protein abundance ([4]; concentration: 6mM): 0.993 ± 0.03 | NP40-soluble protein abundance ([4]; concentration: 8mM): 0.965 ± 0.035 | NP40-soluble protein abundance ([4]; concentration: 10mM): 1.02 ± 0.071 | NP40-soluble protein abundance ([5]; concentration: 1mM): 1.007 ± 0.0093 | NP40-soluble protein abundance ([5]; concentration: 2mM): 1.06 ± 0.071 | NP40-soluble protein abundance ([5]; concentration: 4mM): 1.02 ± 0.021 | NP40-soluble protein abundance ([5]; concentration: 6mM): 1.001 ± 0.0074 | NP40-soluble protein abundance ([5]; concentration: 8mM): 0.953 ± 0.025 | NP40-soluble protein abundance ([5]; concentration: 10mM): 0.976 ± 0.017 | NP40-soluble protein abundance ([6]; concentration: 1mM): 1.008 ± 0.0066 | NP40-soluble protein abundance ([6]; concentration: 2mM): 1.06 ± 0.059 | NP40-soluble protein abundance ([6]; concentration: 4mM): 0.9964 ± 0.0068 | NP40-soluble protein abundance ([6]; concentration: 6mM): 0.983 ± 0.013 | NP40-soluble protein abundance ([6]; concentration: 8mM): 0.973 ± 0.013 | NP40-soluble protein abundance ([6]; concentration: 10mM): 0.989 ± 0.023 | NP40-soluble protein abundance [7]: 1.045 ± 0.0064
